Literature values in US20110097268A1, “RADIOHALOIMATINIBS AND METHODS OF THEIR SYNTHESIS AND USE IN PET IMAGING OF CANCERS” (priority 2006, published 2011).

Test system: Activation loop mutations of c-Kit involving codon D816
Conditions: c-Kit codon D816 activation loop mutations (AML, systemic mastocytosis, seminoma); cited from earlier work

Q: With Cc1ccc(NC(=O)c2ccc(CN3CCN(C)CC3)cc2)cc1Nc1nccc(-c2cccnc2)n1 [STI-571, N-{5-[4-(4-methylpiperazinemethyl)-benzoylamido]-2-methylphenyl}-4-[3-(4-methyl)-pyridyl]-2-pyrimidine amine] as the compound, how does the IC50 read?
A: 5 to 10 µM
